The source of these data is patent publication US11723888B2, “Polymer conjugated thyrointegrin antagonists” (NanoPharmaceuticals, LLC, priority 2021, dated 2023).

Amino acid sequences for entries named in this document (tags omitted). Residues count along the entry.
UniProt P05106, 27-788 limits assumed: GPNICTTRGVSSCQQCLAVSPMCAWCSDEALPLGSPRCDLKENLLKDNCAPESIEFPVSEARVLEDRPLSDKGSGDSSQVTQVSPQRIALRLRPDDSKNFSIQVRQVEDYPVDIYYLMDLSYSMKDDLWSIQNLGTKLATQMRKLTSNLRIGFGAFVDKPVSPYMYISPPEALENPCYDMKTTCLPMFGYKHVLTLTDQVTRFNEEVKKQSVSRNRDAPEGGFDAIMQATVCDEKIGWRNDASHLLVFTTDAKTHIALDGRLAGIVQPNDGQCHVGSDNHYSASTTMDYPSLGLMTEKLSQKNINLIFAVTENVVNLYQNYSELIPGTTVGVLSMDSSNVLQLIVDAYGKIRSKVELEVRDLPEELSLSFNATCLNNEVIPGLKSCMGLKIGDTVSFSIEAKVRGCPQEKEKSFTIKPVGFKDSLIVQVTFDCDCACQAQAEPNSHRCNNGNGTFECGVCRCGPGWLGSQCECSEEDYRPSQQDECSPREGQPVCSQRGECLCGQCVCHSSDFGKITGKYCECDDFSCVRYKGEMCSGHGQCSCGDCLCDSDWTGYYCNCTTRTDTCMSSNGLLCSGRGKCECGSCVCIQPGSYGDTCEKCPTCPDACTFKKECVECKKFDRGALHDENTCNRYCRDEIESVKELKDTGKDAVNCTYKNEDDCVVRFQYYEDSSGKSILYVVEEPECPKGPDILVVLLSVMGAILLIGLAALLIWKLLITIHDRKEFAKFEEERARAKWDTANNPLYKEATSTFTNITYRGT
UniProt P06756, 31-889 limits assumed: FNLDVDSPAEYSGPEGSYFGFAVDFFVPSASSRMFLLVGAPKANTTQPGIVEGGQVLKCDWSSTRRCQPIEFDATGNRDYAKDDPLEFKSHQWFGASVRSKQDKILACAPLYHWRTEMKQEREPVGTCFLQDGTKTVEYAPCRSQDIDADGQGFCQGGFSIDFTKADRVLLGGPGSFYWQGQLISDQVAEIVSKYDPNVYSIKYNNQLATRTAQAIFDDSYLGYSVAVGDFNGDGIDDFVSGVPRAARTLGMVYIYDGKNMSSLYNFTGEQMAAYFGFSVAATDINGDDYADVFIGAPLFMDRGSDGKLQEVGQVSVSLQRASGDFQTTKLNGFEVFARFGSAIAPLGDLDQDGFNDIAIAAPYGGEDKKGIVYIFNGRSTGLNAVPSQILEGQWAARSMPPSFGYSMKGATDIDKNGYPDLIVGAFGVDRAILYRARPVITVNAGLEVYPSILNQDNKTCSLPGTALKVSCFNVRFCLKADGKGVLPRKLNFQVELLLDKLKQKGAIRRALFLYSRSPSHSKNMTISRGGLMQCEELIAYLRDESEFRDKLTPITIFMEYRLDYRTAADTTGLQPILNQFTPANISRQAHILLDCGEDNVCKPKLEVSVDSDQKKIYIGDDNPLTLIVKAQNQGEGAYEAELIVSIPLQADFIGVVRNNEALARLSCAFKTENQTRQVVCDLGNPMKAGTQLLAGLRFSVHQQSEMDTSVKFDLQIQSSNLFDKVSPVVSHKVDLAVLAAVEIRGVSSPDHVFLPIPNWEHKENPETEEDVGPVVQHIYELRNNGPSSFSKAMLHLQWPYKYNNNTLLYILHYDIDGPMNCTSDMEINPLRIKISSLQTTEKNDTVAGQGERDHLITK
UniProt P06756, 891-1048 limits assumed: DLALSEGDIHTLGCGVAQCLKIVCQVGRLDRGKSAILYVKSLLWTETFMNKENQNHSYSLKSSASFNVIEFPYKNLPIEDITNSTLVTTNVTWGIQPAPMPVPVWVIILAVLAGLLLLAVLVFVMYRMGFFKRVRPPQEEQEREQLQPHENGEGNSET

pIC50: −log10 of the molar value. The match of structure and compound is tentative.

The subject of assay [1] is skin cancer (A375) xenografts. Put plainly: Subcutaneous xenograft in nude mice, skin cancer. The following applies: 6 mg/kg daily s.c. 21 days. The method, then: (§1) Immunodeficient female NCr nude homozygous mice aged 5-6 weeks weighing 20-25 g were purchased from Taconic Biosciences, Inc (Germantown, N.Y., USA). All animal studies were conducted at the animal facility of the Veteran Affairs Medical Center (Albany, N.Y., USA) in accordance with approved institutional guidelines for humane animal treatment and according to the current guidelines. Mice were maintained under specific pathogen-free conditions and housed under controlled conditions of temperature (20-24° C.) and humidity (60-70%) and 12 hours light/dark cycle with ad libitum access to water and food. Mice were allowed to acclimatize for 5 days before the study.
(§2) For the subcutaneous (s.c.), the study was conducted where MDMBA231, A2780 and A375 cancer cells were harvested, suspended in 100 μL of DMEM with 50% Matrigel®, and 2-5×10^6 cells were implanted s.c. dorsally in each flank to achieve two independent tumors per animal. Immediately prior to initiation of treatments, animals were randomized into treatment groups (5 animals/group) by tumor volume measurements with Vernier calipers. Treatments were begun after detection of palpable tumor mass (4-5 days post implantation). The treatments were control (PBS), P-bi-TET (n=36) (6 mg/kg), and m-P-mono-TET (n=36) (6 mg/kg). The agents were administered daily, s.c. for 21 days (ON Treatment) in one treatment arm, and in another treatment arm, were administrated daily for 21 days followed by 21 days discontinuation (ON Treatment+OFF Treatment). Animals were then humanely sacrificed, and tumors were harvested. Tumor weights and cell viability (bioluminescent signal intensity) were measured.
(§3) Tumor width and length were measured with calipers at 3 day intervals during ON and ON+OFF study and volumes were calculated using the standard formula W×L^2/2. Tumor weight was measured of harvested lesions following animal sacrifice.

The test system of assay [2] is breast cancer (MDMBA231) xenografts. Put plainly: Subcutaneous xenograft in nude mice, breast cancer. The following applies: 6 mg/kg daily s.c. 21 days. The method, then: as §1, §2, §3
The target of another assay is purified αvβ3 (Homo sapiens, UniProt P05106+P06756). Description: Binding affinity to purified αvβ3 (fibrinogen-coated plate, IC50). The following applies: read-out: binding affinity for αvβ3 (IC50 value); purified αvβ3, fibrinogen-coated plates, 2 hours room temperature.
In assay [3] the test system is ovarian cancer (A2780) xenografts. Put plainly: Subcutaneous xenograft in nude mice, ovarian cancer. The following applies: 6 mg/kg daily s.c. 21 days. The method, then:
as §1, §2, §3

Assay [4] deals with MDMBA, A375 or A2780 cells. Description: Chorioallantoic membrane model (CAM) cancer implant model. The following applies: 10 μg/CAM, breast (MDMBA), ovarian (A2780), skin (A375) implants. The method, then: The relative potency of the TET derivatives in the CAM cancer cell implant model of tumor weight was carried out as previously described by Marcinkiewicz, C., et al., Obtustatin: a potent selective inhibitor of α1β1 integrin in vitro and angiogenesis in vivo. Cancer Research, 2003. 63(9): p. 2020-2023 and Mousa, D. S., et al., Nanoformulated bioactive compounds derived from different natural products combat pancreatic cancer cell proliferation. International journal of nanomedicine, 2020. 15: p. 2259. Ten-day-old chick embryos were purchased from Charles River Avian Vaccine Services (Norwich, Conn., USA) and incubated at 37° C. with 55% relative humidity. […]
Human Breast cancer (MDMBA 231), Skin (A375) and Ovarian (A2780) cells were grown in Dulbecco's Modified Eagle's Medium (DMEM) supplemented with 10% fetal bovine serum and 1% penicillin/streptomycin. […] The cells were washed with culture medium and counted.
Either MDMBA, A375 or A2780 cells at 1×10^6 cells in 30 μl of medium were mixed with same volume of Matrigel and implanted on the CAM. […] The antitumor activities of the treatments on tumor angiogenesis and growth were determined 8 days after tumor cell implantation. […]

Setting [5] is: measured 21 days after treatment (ON+OFF Treatment).

By pIC50 is commonly meant the IC50 on a negative log10 scale, so that one unit is a factor of ten. In the case of `COCCOCCOCCOCCOCCOCCOCCOCCOCCOCCOCCOCCOCCOCCOCCOCCOCCOCCOCCOCCOCCOCCOCCOCCOCCOCCOCCOCCOCCOCCOCCOCCOCCOCCOCCOCCOc1c(I)cc(Oc2c(I)cc(CC(=O)O)cc2I)cc1I`, the “tumor weight reduced by” value in assay [1] (setting [5]) was 85.4%; in assay [2] (setting [5]), 88.5%; in assay [3] (setting [5]), 89.6%. The “tumor volume compared with the control (PBS)” value in assay [1] (ON Treatment and ON+OFF Treatment, FIG. 15) is given as “reduction in tumor volume”; in assay [2] (ON Treatment and ON+OFF Treatment, FIG. 16), “reduction in tumor volume”; in assay [3] (ON Treatment and ON+OFF Treatment, FIG. 14) it was “reduction in tumor volume”. For the same compound, the “tumor weight compared with the control (PBS)” value is recorded as “reduction in tumor weight” in assay [1] (ON Treatment and ON+OFF Treatment, FIG. 18); “reduction in tumor weight” in assay [2] (ON Treatment and ON+OFF Treatment, FIG. 19); “reduction in tumor weight” in assay [3] (ON Treatment and ON+OFF Treatment, FIG. 17). On purified αvβ3, the pIC50 is 9.57. Also, in assay [4] (FIG. 12), the “mean tumor weight compared with the control group (PBS)” value is “reduction of tumor weight”. Further, in assay [4] (FIG. 13), the “tumor hemoglobin (tumor vascularity) compared with the control group (PBS)” value is reported as “reduction of tumor hemoglobin”.

On to `COCCOCCOCCOCCOCCOCCOCCOCCOCCOCCOCCOCCOCCOCCOCCOCCOc1c(I)cc(Oc2c(I)cc(CC(=O)O)cc2I)cc1I`, for which the pIC50 on purified αvβ3 is 10.52.

For the compound `COCCOCCOCCOc1c(I)cc(Oc2c(I)cc(CC(=O)O)cc2I)cc1I`, the pIC50 on purified αvβ3 is 10.30.
